Data as given in PubChem BioAssay AID256 (DTP/NCI, 2004).
The list does not hold the whole screen: it is rich in T/C values a quarter to a half above the control, in often repeated tests (any T/C) and in doses without a T/C. Other doses and runs of a compound stand elsewhere. T/C is the treated group as % of the vehicle group. Some entries give survivors of the animals treated and no T/C: the source holds a T/C of zero for them, seemingly a mark for toxic or unscored doses. Some survivor counts are full or nearly so, which does not show that the dose was tolerated: survival well below the control is almost never listed, so the zero probably covers shortened survival too. Survivors were counted at the toxicity check, usually on the fifth day, unless a day is given; later deaths do not show. Schedule codes are those of the source, taken here to give the interval after Q, in days (D) or hours (H), and the number of doses after X. Some structures stand for samples that the source files as different forms (salt, stereo form or complex); doses refer to the form tested. Some entries hold several experiments; the values are given in rising order. Signs of the kind (2×) say how often a value occurs here. For survival time, the PubChem record calls one and a half times the control and up active, and a quarter to a half above the control has no call in these data; cut-offs in other NCI protocols can differ. Some T/C values are followed by the survivors on the day toxicity was checked, most often the fifth; without a count, all were alive then.

Test system: CD2F1 mice, L1210 leukemia ip, survival T/C
Assay: NCI In Vivo Anticancer Drug Screen. Data for tumor model L1210 Leukemia (intraperitoneal) in CD2F1 (CDF1) mice
Settings: higher T/C = longer survival
Experimental: The antitumor activity of compounds was measured in mice bearing transplantable tumors. Survival or tumor size were measured and the results are expressed as the measurement made in the treated group (T) divided by the measurement made in the vehicle treated control group (C). The tumor model used in this assay is L1210 Leukemia (intraperitoneal) in CD2F1 (CDF1) mice

[1] = T/C endpoint: mean survival time, dose: 100.0 mg/kg/injection, schedule: Q01DX009 (ip), vehicle: saline with Tween-80
[2] = T/C endpoint: mean survival time, dose: 100.0 mg/kg/injection, schedule: Q01DX001 (ip), vehicle: saline with Tween-80
[3] = T/C endpoint: mean survival time, dose: 400.0 mg/kg/injection, schedule: Q01DX001 (ip), vehicle: saline with Tween-80
[4] = T/C endpoint: mean survival time, dose: 100.0 mg/kg/injection, schedule: Q04DX002 (ip), vehicle: saline
[5] = T/C endpoint: mean survival time, dose: 100.0 mg/kg/injection, schedule: Q04DX003 (ip), vehicle: saline with Tween-80
[6] = T/C endpoint: mean survival time, dose: 200.0 mg/kg/injection, schedule: Q04DX003 (ip), vehicle: saline with Tween-80
[7] = T/C endpoint: mean survival time, dose: 400.0 mg/kg/injection, schedule: Q04DX003 (ip), vehicle: saline with Tween-80
[8] = T/C endpoint: mean survival time, dose: 300.0 mg/kg/injection, schedule: Q01DX001 (ip), vehicle: saline
[9] = T/C endpoint: mean survival time, dose: 400.0 mg/kg/injection, schedule: Q04DX003 (ip), vehicle: saline
[10] = T/C endpoint: mean survival time, dose: 200.0 mg/kg/injection, schedule: Q04DX002 (ip), vehicle: saline with Tween-80
[11] = T/C endpoint: mean survival time, dose: 400.0 mg/kg/injection, schedule: Q01DX001 (ip), vehicle: saline
[12] = T/C endpoint: mean survival time, dose: 150.0 mg/kg/injection, schedule: Q01DX001 (ip), vehicle: saline
[13] = T/C endpoint: mean survival time, dose: 100.0 mg/kg/injection, schedule: Q04DX002 (ip), vehicle: saline with Tween-80

Nc1ccccc1O
survivor count (T/C endpoint: mean survival time, dose: 400.0 mg/kg/injection, schedule: Q01DX009 (ip), vehicle: saline with Tween-80): 2 of 6

COc1cc(Cl)ccc1NC(=O)N1CCN(c2ccccc2)CC1
survivor count [1]: 3 of 3

CCCCCCCCCCCCCCCC(=O)N(CCCN)CCCN(CCCN)C(=O)CCCCCCCCCCCCCCC
survivor count [1]: 1 of 6

COC1OC(COC(C)=O)C(OC(C)=O)C(NC(=O)N(CCCl)N=O)C1OC(C)=O (centres undefined)
survivor count [2]: 9 of 10 | survivor count (T/C endpoint: mean survival time, dose: 150.0 mg/kg/injection, schedule: Q01DX001 (ip), vehicle: saline with Tween-80): 9 of 10 | survivor count (T/C endpoint: mean survival time, dose: 225.0 mg/kg/injection, schedule: Q01DX001 (ip), vehicle: saline with Tween-80): 7 of 10

CC1SC(=Nc2ccc(S(N)(=O)=O)cc2)NC1=O (centres undefined)
survivor count [2]: 6 of 6 | survivor count [3]: 4 of 6

NC(CS)=NCCc1nc2ccccc2[nH]1
survivor count [4]: 0 of 3

C=COCCN1CCN(CCCN2c3ccccc3Sc3ccc(C(F)(F)F)cc32)CC1
survivor count (T/C endpoint: mean survival time, dose: 50.0 mg/kg/injection, schedule: Q04DX003 (ip), vehicle: saline with Tween-80): 3 of 3 | survivor count [5]: 2 of 6 | survivor count [6]: 0 of 6 | survivor count [7]: 0 of 6

OCCCl
survivor count [8]: 1 of 6

COc1cc(NC(C)CCCN)c2ncccc2c1 (centres undefined)
survivor count (T/C endpoint: mean survival time, dose: 100.0 mg/kg/injection, schedule: Q04DX003 (ip), vehicle: saline): 6 of 6 | survivor count (T/C endpoint: mean survival time, dose: 200.0 mg/kg/injection, schedule: Q04DX003 (ip), vehicle: saline): 0 of 6 | survivor count [9]: 0 of 6

COc1ccc(NC(=O)Oc2ccccc2C(C)C)cc1
survivor count [10]: 3 of 3

C[S+](C)CC(C)(C)CI
survivor count (T/C endpoint: mean survival time, dose: 200.0 mg/kg/injection, schedule: Q01DX001 (ip), vehicle: saline): 1 of 3 | survivor count [11]: 0 of 3

CC(C)CSCC1OC(n2cnc3c(N)nccc32)C(O)C1O (centres undefined)
survivor count (T/C endpoint: mean survival time, dose: 200.0 mg/kg/injection, schedule: Q01DX005 (ip), vehicle: distilled water + Tween-80): 3 of 6

C=CCNC(=O)/C=C/C(=O)NCC=C
survivor count [6]: 3 of 6 | survivor count [7]: 1 of 6

O=C(CCl)n1nc(Cl)c2ccc([N+](=O)[O-])cc21
survivor count [11]: 2 of 4

O=C1CCN(Cl)C(=O)N1Cl
survivor count (T/C endpoint: mean survival time, dose: 75.0 mg/kg/injection, schedule: Q01DX001 (ip), vehicle: saline): 0 of 6 | survivor count [12]: 0 of 6 | survivor count [8]: 0 of 6

O=C(Oc1ccc(=O)[nH]n1)c1ccccc1
survivor count [13]: 3 of 3

Clc1nnc(-c2ccccc2)s1
survivor count [7]: 2 of 6

COc1ccc(N(C)c2ccc(C(=C3C=CC(=[N+](C)CCO)C=C3)c3ccc(N(C)CCO)cc3)cc2)cc1
T/C (T/C endpoint: mean survival time, dose: 12.5 mg/kg/injection, schedule: Q04DX002 (ip), vehicle: saline with Tween-80): 141 % of control | survivor count [13]: 0 of 3 | survivor count [10]: 0 of 3 | survivor count (T/C endpoint: mean survival time, dose: 400.0 mg/kg/injection, schedule: Q04DX002 (ip), vehicle: saline with Tween-80): 0 of 3

CCCC(=O)O
survivor count (T/C endpoint: mean survival time, dose: 400.0 mg/kg/injection, schedule: Q01DX009 (ip), vehicle: saline): 0 of 10 and 1 of 6

N#Cc1cn(C2OC(CO)C(O)C2O)c2ncn(N)c(=N)c12 (centres undefined)
survivor count (T/C endpoint: mean survival time, dose: 200.0 mg/kg/injection, schedule: Q01DX005 (ip), vehicle: water): 6 of 6 | survivor count (T/C endpoint: mean survival time, dose: 400.0 mg/kg/injection, schedule: Q01DX005 (ip), vehicle: water): 0 of 6

CCCCCC[C@H]([C@H](C)O)n1cnc2c(N)ncnc21
survivor count (T/C endpoint: mean survival time, dose: 150.0 mg/kg/injection, schedule: Q03HX024 (ip), vehicle: saline with Tween-80): 6 of 6 | survivor count (T/C endpoint: mean survival time, dose: 200.0 mg/kg/injection, schedule: Q01DX009 (ip), vehicle: Klucel (hydroxypropylcellulose) (HPC)): 1 of 6 | survivor count (T/C endpoint: median survival time, dose: 200.0 mg/kg/injection, schedule: Q01DX009 (ip), vehicle: Klucel (hydroxypropylcellulose) (HPC)): 2 of 6

NC(CC(=O)CCl)C(=O)O (centres undefined)
T/C (T/C endpoint: mean survival time, dose: 12.5 mg/kg/injection, schedule: Q04DX003 (ip), vehicle: saline, evaluated on day 5): 133 % of control | T/C (T/C endpoint: mean survival time, dose: 12.5 mg/kg/injection, schedule: Q04DX003 (ip), vehicle: saline, evaluated on day 30): 133 % of control | T/C (T/C endpoint: mean survival time, dose: 18.8 mg/kg/injection, schedule: Q04DX003 (ip), vehicle: saline): 126 % of control | T/C (T/C endpoint: mean survival time, dose: 25.0 mg/kg/injection, schedule: Q04DX003 (ip), vehicle: saline, evaluated on day 5): 140 % of control | T/C (T/C endpoint: mean survival time, dose: 25.0 mg/kg/injection, schedule: Q04DX003 (ip), vehicle: saline, evaluated on day 30): 140 % of control | T/C (T/C endpoint: mean survival time, dose: 50.0 mg/kg/injection, schedule: Q04DX003 (ip), vehicle: saline, evaluated on day 5): 134 % of control | T/C (T/C endpoint: mean survival time, dose: 50.0 mg/kg/injection, schedule: Q04DX003 (ip), vehicle: saline, evaluated on day 30): 134 % of control | T/C (T/C endpoint: mean survival time, dose: 75.0 mg/kg/injection, schedule: Q04DX003 (ip), vehicle: saline): 129 % of control [4 of 6 alive] | survivor count (T/C endpoint: mean survival time, dose: 150.0 mg/kg/injection, schedule: Q04DX003 (ip), vehicle: saline): 0 of 6 | T/C (T/C endpoint: median survival time, dose: 7.5 mg/kg/injection, schedule: Q01DX009 (ip), vehicle: saline, evaluated on day 5): 137 % of control | T/C (T/C endpoint: median survival time, dose: 7.5 mg/kg/injection, schedule: Q01DX009 (ip), vehicle: saline, evaluated on day 30): 133 % of control | T/C (T/C endpoint: median survival time, dose: 15.0 mg/kg/injection, schedule: Q01DX009 (ip), vehicle: saline, evaluated on day 5): 140 % of control | T/C (T/C endpoint: median survival time, dose: 15.0 mg/kg/injection, schedule: Q01DX009 (ip), vehicle: saline, evaluated on day 30): 133 % of control | T/C (T/C endpoint: median survival time, dose: 30.0 mg/kg/injection, schedule: Q01DX009 (ip), vehicle: saline): 147 % of control | survivor count (T/C endpoint: median survival time, dose: 60.0 mg/kg/injection, schedule: Q01DX009 (ip), vehicle: saline): 0 of 10

Cc1cc(O)c(C)c(C)c1Cl
survivor count [7]: 2 of 6

NC(=S)NN=C1CCCC1
survivor count [5]: 0 of 6 | survivor count [6]: 0 of 6 | survivor count [7]: 0 of 6

CC1(C)C2(C)CC12C (centres undefined)
survivor count (T/C endpoint: median survival time, dose: 50.0 mg/kg/injection, schedule: Q04DX002 (ip), vehicle: saline with Tween-80): 0 of 3 | survivor count (T/C endpoint: median survival time, dose: 100.0 mg/kg/injection, schedule: Q04DX002 (ip), vehicle: saline with Tween-80): 0 of 3 | survivor count (T/C endpoint: median survival time, dose: 200.0 mg/kg/injection, schedule: Q04DX002 (ip), vehicle: saline with Tween-80): 0 of 3 | survivor count (T/C endpoint: median survival time, dose: 400.0 mg/kg/injection, schedule: Q04DX002 (ip), vehicle: saline with Tween-80): 0 of 3

N#CCCN=C1C=CC(=C(c2ccc(NCCC#N)cc2)c2ccccc2Cl)C=C1
survivor count [13]: 3 of 3

CC(C)(C)N1CCOCC1
survivor count [6]: 1 of 6 | survivor count [7]: 0 of 6

C1CSC(=[N+]2CC[N+](=C3SCCS3)CC2)S1
survivor count (T/C endpoint: mean survival time, dose: 50.0 mg/kg/injection, schedule: Q01DX009 (ip), vehicle: saline): 0 of 3 | survivor count [4]: 0 of 3

Cc1ccn2c(=O)c(CCBr)c(C)nc2c1
survivor count [12]: 0 of 6 | survivor count [8]: 0 of 6

CCCCCCCC(C)/C=N/NC(=O)c1ccc[n+](C)c1 (centres undefined)
survivor count [9]: 0 of 6

CCCCCCCCCCCCCCCCCC[N+]1(C)CCSCC1
survivor count (T/C endpoint: mean survival time, dose: 50.0 mg/kg/injection, schedule: Q01DX001 (ip), vehicle: saline with Tween-80): 3 of 6 | survivor count [2]: 5 of 6 | survivor count (T/C endpoint: mean survival time, dose: 200.0 mg/kg/injection, schedule: Q01DX001 (ip), vehicle: saline with Tween-80): 0 of 6 | survivor count [3]: 0 of 6 (2×)
